# System: HCV (JFH-1) infected Huh7 cells
# Settings: 24 hours
# Text: Huh7 cells were infected with the JFH-1 strain of hepatitis C virus (genotype 2a) as previously described in Wakita et al., (2005), “Production of infectious hepatitis C virus in tissue culture from a cloned viral genome”, Nat. Med., 11(7):791-796). Briefly, pJFH-1 plasmids encoding full length HCV genome (provided by T. Wakita, National Institute of Infectious Diseases, Japan) were linearized and HCV RNA was synthesized using T7 RiboMAX™ Express Large Scale RNA Production System (Promega). 10 μg of HCV RNA was added to 1.6×10^6 Huh7 cells suspended in 800 ul PBS buffer. A Bio-Rad Gene Pulser system was used to deliver a single pulse at 0.34 kV, 975 μF, using 4 mm electroporation cuvettes. Cells were cultured at 37° C. in a 5% CO2 atmosphere in Dulbecco's modified Eagle's medium (DMEM) supplemented with 10% fetal bovine serum for 10 days (Gibco).
# HCV RNA was amplified from infected Huh7 cells using specific primers targeting the 5′ noncoding region under the following conditions: 10 min at 95° C.; 40 cycles of 94° C. for 15 s and 60° C. for 45 s. Samples were analysed in triplicate and relative expression of HCV RNA normalised to 18s.
# JFH-1 infected Huh7 cells cultured in 6 well plates were treated with HU-210 (100 nM), either alone or with increasing concentrations of the antagonists NlDA-41020 or (S)-SLV-319 (1 nM, 10 nM, 100 nM and 1 μM). Untreated cells and cells treated with CB1 antagonist alone (100 nM) were used as controls. After 24 hours cells were harvested, total RNA extracted, and HCV RNA measured by qPCR. Three replicate experiments were performed for each set of conditions and mean values calculated.
compound,measurement,setting,value
"COc1ccc(-c2c(C)c(C(=O)NN3CCCCC3)nn2-c2ccc(Cl)cc2Cl)cc1 [NIDA-41020, 1-(2,4-Dichlorophenyl)-5-(4-methoxyphenyl)-4-methyl-N-(1-piperidinyl)-1H-pyrazole-3-carboxamide]",effect on HCV replication (in words),HCV RNA by qPCR (FIG. 9; discussion),inhibited
same,reduction of HCV replication,"CB1 antagonist alone (100 nM), HCV RNA by qPCR (FIG. 8)",~75%
same,effect on the HU-210-induced increase of HCV replication,"HU-210 100 nM plus antagonist 1 nM-1 μM, HCV RNA by qPCR (FIG. 7)",reversed

# — US20130059890A1, “ANTIVIRAL AGENTS” (SYDNEY WEST AREA HEALTH SERVICE, priority 2009, published 2013)
